Laboratory results reported in the supplement of paper PMC12067093, “Discovery and optimisation of a covalent ligand for TRIM25 and its application to targeted protein ubiquitination” (Chemical Science, 2025).
Some of the results follow.

By UniProt entry, the sequences of proteins in these tests, tags left out. Where a name states a change or a piece, a line headed by the entry shows the natural chain unless it says otherwise.
UniProt O60287: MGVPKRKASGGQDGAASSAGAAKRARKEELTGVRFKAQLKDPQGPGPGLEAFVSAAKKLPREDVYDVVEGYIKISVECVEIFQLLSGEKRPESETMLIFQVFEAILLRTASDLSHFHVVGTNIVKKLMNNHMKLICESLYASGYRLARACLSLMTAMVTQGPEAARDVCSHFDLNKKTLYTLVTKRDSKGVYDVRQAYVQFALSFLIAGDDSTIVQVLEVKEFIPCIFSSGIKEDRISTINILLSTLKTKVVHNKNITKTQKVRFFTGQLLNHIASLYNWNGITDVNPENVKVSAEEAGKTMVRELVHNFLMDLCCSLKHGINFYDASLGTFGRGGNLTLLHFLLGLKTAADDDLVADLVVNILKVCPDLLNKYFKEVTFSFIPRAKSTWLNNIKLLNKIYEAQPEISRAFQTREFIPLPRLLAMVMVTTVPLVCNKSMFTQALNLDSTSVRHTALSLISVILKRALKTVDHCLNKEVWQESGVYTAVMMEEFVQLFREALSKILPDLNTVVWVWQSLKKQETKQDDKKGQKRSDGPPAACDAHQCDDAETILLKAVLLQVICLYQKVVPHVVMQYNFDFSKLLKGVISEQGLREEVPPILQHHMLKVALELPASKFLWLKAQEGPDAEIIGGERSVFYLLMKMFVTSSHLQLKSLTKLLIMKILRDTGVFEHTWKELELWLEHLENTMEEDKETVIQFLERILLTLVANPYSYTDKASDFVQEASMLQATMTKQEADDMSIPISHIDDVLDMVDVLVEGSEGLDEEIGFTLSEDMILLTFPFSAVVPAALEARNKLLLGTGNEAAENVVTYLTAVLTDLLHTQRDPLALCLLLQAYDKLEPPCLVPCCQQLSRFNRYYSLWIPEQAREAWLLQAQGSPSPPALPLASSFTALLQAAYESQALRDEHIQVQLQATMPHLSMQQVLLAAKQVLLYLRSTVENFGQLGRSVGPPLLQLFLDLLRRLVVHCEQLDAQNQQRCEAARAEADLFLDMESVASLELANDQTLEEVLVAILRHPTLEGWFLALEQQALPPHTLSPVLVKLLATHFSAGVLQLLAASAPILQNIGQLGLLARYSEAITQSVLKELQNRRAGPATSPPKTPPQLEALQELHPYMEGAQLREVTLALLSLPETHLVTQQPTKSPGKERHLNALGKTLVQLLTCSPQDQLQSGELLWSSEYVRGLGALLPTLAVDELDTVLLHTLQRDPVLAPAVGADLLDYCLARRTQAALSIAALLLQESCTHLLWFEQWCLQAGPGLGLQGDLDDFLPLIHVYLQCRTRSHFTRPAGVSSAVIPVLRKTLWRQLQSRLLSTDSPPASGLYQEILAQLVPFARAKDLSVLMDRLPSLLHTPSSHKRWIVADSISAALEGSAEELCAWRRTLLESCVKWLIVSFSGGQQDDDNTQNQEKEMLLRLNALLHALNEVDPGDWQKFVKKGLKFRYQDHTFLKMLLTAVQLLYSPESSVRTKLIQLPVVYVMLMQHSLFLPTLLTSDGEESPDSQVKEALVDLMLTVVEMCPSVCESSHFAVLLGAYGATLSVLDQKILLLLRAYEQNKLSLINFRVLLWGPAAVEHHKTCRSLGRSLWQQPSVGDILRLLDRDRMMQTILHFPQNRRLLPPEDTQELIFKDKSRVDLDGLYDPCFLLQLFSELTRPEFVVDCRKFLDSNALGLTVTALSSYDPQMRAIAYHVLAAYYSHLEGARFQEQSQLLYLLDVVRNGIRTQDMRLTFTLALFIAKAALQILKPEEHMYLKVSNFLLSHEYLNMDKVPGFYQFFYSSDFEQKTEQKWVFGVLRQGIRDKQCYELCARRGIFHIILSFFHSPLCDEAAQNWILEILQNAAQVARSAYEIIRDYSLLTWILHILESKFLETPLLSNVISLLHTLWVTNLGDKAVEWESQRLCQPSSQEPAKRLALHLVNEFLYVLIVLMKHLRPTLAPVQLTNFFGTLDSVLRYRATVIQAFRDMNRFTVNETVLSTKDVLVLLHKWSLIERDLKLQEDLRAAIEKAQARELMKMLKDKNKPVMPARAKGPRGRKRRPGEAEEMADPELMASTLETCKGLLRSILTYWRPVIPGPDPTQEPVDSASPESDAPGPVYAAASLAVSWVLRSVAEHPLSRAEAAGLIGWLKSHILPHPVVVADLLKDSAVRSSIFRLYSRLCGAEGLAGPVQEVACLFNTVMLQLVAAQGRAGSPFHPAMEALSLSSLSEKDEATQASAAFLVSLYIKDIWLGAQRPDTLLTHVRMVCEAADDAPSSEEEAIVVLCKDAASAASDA
UniProt P17480: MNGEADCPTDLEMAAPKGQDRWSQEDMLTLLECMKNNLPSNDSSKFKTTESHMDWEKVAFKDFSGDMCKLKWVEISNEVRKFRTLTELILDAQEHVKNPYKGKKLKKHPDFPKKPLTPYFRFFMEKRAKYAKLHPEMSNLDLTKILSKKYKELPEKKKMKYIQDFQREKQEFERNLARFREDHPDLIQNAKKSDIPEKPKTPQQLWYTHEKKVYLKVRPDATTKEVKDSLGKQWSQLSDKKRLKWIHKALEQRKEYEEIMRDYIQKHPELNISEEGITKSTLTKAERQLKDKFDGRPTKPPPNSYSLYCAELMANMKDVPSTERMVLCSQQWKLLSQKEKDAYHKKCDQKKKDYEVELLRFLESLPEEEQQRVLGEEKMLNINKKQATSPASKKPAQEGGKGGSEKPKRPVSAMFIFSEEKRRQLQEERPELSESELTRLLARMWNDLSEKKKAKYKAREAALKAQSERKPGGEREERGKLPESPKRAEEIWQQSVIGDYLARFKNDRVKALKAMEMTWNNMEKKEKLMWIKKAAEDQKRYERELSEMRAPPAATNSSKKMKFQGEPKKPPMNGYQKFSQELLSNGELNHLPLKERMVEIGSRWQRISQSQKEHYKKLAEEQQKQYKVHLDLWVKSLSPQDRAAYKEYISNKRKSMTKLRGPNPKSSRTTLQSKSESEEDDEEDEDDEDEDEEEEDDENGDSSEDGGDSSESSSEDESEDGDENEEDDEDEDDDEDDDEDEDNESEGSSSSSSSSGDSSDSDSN
UniProt Q93009, whole entry, looked up: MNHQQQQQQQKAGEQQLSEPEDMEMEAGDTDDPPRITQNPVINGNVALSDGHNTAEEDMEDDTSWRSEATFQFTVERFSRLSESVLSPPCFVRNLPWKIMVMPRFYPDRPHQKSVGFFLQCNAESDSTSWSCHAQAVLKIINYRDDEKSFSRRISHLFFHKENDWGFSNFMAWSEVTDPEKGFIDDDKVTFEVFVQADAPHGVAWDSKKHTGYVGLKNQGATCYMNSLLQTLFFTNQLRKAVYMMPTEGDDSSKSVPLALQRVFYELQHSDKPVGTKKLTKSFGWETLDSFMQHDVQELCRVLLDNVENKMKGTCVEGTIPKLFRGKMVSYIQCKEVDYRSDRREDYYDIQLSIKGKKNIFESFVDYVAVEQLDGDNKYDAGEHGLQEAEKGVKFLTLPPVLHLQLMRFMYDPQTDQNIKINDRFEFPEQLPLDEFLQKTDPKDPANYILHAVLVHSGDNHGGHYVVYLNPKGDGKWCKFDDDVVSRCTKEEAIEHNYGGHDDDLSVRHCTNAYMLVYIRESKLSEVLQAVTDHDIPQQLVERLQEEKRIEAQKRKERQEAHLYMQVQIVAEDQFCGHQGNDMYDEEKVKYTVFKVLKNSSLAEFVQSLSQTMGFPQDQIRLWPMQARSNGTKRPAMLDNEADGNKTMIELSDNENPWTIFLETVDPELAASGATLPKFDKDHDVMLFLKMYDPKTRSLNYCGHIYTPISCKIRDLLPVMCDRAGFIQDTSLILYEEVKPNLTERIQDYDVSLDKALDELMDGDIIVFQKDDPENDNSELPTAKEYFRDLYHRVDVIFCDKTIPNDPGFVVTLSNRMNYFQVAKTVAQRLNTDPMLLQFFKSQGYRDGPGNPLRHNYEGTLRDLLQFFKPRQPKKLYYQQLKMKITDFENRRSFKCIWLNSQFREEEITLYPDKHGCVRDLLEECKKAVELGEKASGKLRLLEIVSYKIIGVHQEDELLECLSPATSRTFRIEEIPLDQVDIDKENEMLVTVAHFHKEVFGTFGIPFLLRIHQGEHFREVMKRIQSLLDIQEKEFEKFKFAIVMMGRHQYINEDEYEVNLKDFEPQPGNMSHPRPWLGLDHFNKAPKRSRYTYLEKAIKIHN
UniProt Q86UV5: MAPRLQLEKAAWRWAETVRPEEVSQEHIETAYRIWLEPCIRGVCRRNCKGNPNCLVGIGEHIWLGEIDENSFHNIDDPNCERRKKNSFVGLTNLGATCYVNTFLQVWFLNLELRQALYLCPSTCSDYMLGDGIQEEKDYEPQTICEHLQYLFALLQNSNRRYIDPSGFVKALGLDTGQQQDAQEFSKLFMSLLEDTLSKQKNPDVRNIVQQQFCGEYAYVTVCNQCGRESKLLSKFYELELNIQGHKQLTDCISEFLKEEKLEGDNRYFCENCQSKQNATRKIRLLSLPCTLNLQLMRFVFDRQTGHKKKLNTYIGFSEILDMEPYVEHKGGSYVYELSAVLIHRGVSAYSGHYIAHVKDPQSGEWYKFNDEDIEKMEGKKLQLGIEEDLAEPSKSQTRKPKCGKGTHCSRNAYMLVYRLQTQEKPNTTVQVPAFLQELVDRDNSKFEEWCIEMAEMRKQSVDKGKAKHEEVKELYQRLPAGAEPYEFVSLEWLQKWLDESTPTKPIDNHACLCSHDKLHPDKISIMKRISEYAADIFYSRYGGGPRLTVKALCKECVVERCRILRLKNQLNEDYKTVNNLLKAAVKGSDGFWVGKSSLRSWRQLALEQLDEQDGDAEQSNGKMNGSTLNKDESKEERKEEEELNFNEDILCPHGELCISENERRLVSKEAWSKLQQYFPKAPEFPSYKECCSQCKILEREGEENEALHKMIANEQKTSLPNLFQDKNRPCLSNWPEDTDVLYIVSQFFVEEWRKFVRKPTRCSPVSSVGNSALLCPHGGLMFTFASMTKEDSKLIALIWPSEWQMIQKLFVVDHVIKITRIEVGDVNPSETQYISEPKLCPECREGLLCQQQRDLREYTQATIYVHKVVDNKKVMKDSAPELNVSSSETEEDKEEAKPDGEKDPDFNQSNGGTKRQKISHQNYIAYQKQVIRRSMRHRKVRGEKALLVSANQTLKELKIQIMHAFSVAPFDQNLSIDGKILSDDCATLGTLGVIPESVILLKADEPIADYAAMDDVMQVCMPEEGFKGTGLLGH
UniProt Q9Y6I4: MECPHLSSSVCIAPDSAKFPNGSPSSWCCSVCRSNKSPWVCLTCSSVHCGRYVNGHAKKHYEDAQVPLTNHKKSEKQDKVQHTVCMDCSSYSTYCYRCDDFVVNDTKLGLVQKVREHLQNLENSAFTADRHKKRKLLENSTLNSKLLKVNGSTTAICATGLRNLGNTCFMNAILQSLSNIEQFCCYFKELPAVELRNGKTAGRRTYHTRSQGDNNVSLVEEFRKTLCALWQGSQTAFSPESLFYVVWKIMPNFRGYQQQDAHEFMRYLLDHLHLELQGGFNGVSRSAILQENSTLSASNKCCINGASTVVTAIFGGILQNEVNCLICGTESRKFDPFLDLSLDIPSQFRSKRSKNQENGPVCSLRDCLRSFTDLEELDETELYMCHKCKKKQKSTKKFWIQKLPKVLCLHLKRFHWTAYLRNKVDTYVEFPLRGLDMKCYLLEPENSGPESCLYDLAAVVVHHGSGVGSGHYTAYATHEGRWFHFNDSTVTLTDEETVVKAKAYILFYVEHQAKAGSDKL
UniProt Q9C0B0: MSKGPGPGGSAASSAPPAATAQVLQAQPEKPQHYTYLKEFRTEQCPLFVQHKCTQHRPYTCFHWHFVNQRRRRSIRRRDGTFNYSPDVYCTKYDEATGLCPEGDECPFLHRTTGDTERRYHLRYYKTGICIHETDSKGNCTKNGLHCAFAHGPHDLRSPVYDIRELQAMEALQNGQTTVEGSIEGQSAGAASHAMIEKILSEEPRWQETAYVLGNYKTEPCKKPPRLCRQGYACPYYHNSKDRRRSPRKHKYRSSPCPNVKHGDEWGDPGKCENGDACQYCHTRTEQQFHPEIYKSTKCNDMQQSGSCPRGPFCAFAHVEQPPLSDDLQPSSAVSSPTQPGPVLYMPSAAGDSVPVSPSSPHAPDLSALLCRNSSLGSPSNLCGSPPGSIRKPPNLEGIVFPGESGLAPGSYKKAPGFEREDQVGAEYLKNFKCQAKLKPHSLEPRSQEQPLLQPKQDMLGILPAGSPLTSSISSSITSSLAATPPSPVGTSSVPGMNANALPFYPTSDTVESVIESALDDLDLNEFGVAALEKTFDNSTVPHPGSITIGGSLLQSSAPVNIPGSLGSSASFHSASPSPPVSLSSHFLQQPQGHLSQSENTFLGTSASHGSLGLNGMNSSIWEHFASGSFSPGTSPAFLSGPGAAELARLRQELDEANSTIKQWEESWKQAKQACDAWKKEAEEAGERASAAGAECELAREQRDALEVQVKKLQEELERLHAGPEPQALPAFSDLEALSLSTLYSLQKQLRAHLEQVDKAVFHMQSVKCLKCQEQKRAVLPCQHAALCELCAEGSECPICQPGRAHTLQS

Compound: CC1Cc2ccccc2N1C(=O)C1CCCN(C1)C(=O)CCl (mixture of isomers) [TRIM25 ligand 11 (diastereomer mixture)]
Test: probe-labelled cysteine peptide fold change vs DMSO (competition) (log2 fold change); higher = less target engagement (more negative = stronger competition)
Conditions: THP-1, incubation time: 4 h
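Further: competitive chemoproteomic profiling in live THP-1 cells with an iodoacetamide desthiobiotin (IA-DTB) probe, comparing probe-labelled peptide intensities in compound-treated cells against DMSO-treated controls.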

Target | probe-labelled cysteine peptide fold change (10 µM) | probe-labelled cysteine peptide fold change (50 µM)
UNC13D_Q70J99_276_TETYPDRGQCHLQFQLIHK (UniProt Q70J99) | 3.21e-05 | 0.0391
URB1_O60287_563_AVLLQVICLYQK (UniProt O60287) | -0.105 | -0.455
UBR7_Q8N806_374_VQQVELICEYNDLK (UniProt Q8N806) | -0.0738 | 0.0769
UBTF_P17480_33_WSQEDMLTLLECMK (UniProt P17480) | 0.0726 | -0.0605
UNC119B_A6NIH7_85_VTENYLCKPEDNIYSIDFTR (UniProt A6NIH7) | -0.0289 | -0.158
UMPS_P11172_304_CHEFLIFEDRK (UniProt P11172) | -0.114 | -0.0218
USP7_Q93009_315_GTCVEGTIPK (UniProt Q93009) | -0.00682 | -0.0446
UBXN7_O94888_38_HMLEACNNNLEMAVTMFLDGGGIAEEPSTSSASVSTVRPHTEEEVR (UniProt O94888) | -0.0794 | 0.0135
USP7_Q93009_702+711_SLNYCGHIYTPISCK (UniProt Q93009) | -0.116 | -0.0186
UBTD2_Q8WUN7_152_SDIETLDIPEPPPNSGYECQLR (UniProt Q8WUN7) | 0.131 | 0.153
USP40_Q9NVE5_172_LYHGTIVNQIVCK (UniProt Q9NVE5) | -0.217 | -0.0373
USP48_Q86UV5_145_DYEPQTICEHLQYLFALLQNSNRR (UniProt Q86UV5) | 0.102 | -0.124
UHRF2_Q96PU4_347_CHSCSCR (UniProt Q96PU4) | 0.0469 | 0.235
UBTF_P17480_309_DKFDGRPTKPPPNSYSLYCAELMANMK (UniProt P17480) | -0.211 | -0.446
UHRF1_Q96T88_98_ERDSELSDTDSGCCLGQSESDK (UniProt Q96T88) | -0.062 | -0.0154
USP24_Q9UPU5_116_NDENGNCSGEGIEFPTTNLYELESR (UniProt Q9UPU5) | 0.0268 | -0.161
USP5_P45974_219_ENLWLNLTDGSILCGR (UniProt P45974) | 0.0437 | -0.0206
UNC45A_Q9H3U1_118_CVSLEPK (UniProt Q9H3U1) | 0.0445 | 0.135
UGP2_Q16851_276_RCEFVMEVTNK (UniProt Q16851) | 0.106 | 0.0365
UHRF1_Q96T88_170_DEPCSSTSRPALEEDVIYHVK (UniProt Q96T88) | 0.141 | -0.0845
UBXN7_O94888_38_HMLEACNNNLEMAVTMFLDGGGIAEEPSTSSASVSTVRPHTEEEVRAPIPQK (UniProt O94888) | -0.0254 | -0.299

Random excerpt: six entries already listed
Target | probe-labelled cysteine peptide fold change (10 µM) | probe-labelled cysteine peptide fold change (50 µM)
UBR7_Q8N806_374_VQQVELICEYNDLK (UniProt Q8N806) | -0.0738 | 0.0769
UNC13D_Q70J99_276_TETYPDRGQCHLQFQLIHK (UniProt Q70J99) | 3.21e-05 | 0.0391
USP40_Q9NVE5_172_LYHGTIVNQIVCK (UniProt Q9NVE5) | -0.217 | -0.0373
UNC45A_Q9H3U1_118_CVSLEPK (UniProt Q9H3U1) | 0.0445 | 0.135
USP24_Q9UPU5_116_NDENGNCSGEGIEFPTTNLYELESR (UniProt Q9UPU5) | 0.0268 | -0.161
UBTD2_Q8WUN7_152_SDIETLDIPEPPPNSGYECQLR (UniProt Q8WUN7) | 0.131 | 0.153

Next records:

Target | probe-labelled cysteine peptide fold change (10 µM) | probe-labelled cysteine peptide fold change (50 µM)
UNC13D_Q70J99_699_DQGQAANMLCVVVNDMEQLR (UniProt Q70J99) | -0.486 | 0.213
UGDH_O60701_276_ASVGFGGSCFQK (UniProt O60701) | -0.0028 | 0.09
UGDH_O60701_20+27_ICCIGAGYVGGPTCSVIAHMCPEIR (UniProt O60701) | 0.000235 | -0.197
USP6_P35125_1185_SGTSCPSSK (UniProt P35125) | -0.0146 | 0.069
USP14_P54578_415_YEPFSFADDIGSNNCGYYDLQAVLTHQGR (UniProt P54578) | -0.151 | -0.0789
USP39_Q53GS9_306_AHVSPHEMLQAVVLCSK (UniProt Q53GS9) | 0.15 | 0.066
UHRF1BP1_Q6BDS2_384_HCEAMETR (UniProt Q6BDS2) | -0.0654 | -0.0129
UBR5_O95071_572_VGVLMESVWNMNDSCR (UniProt O95071) | -0.102 | -0.192
UIMC1_Q96RL1_348_NECISEDMGDEDKEER (UniProt Q96RL1) | 0.0523 | -0.224
UCHL5_Q9Y5K5_9_MTGNAGEWCLMESDPGVFTELIK (UniProt Q9Y5K5) | -0.138 | -0.157
URGCP_Q8TCY9_629_EMGQFYEAESCLVEAGRLPAGQR (UniProt Q8TCY9) | -0.0582 | -0.0562
USP3_Q9Y6I4_49_SPWVCLTCSSVHCGR (UniProt Q9Y6I4) | -0.017 | -0.101
USP24_Q9UPU5_995_QLCSPVDNIQIFTNDSLLTVNK (UniProt Q9UPU5) | 0.0995 | 0.468
USP3_Q9Y6I4_385_SFTDLEELDETELYMCHK (UniProt Q9Y6I4) | 0.00344 | -0.0741
USP15_Q9Y4E8_633+634_ISTETEETEGSLHCCK (UniProt Q9Y4E8) | 0.0333 | -0.399
UQCRC1_P31930_410_NALVSHLDGTTPVCEDIGR (UniProt P31930) | 0.00661 | -0.104
UQCC2_Q9BRT2_13_LCEEWPVDETK (UniProt Q9BRT2) | -0.0963 | -0.0733
USP48_Q86UV5_512+514_WLDESTPTKPIDNHACLCSHDK (UniProt Q86UV5) | 0.207 | -0.0629
USP19_O94966_258_NPGKDDCAK (UniProt O94966) | 0.0406 | -0.0659
USP19_O94966_1042_ELECAEDPGSAGEAAR (UniProt O94966) | 0.18 | 0.0647
UMPS_P11172_174_LHSVCTLSK (UniProt P11172) | 0.0745 | 0.0932

Target | probe-labelled cysteine peptide fold change (10 µM) | probe-labelled cysteine peptide fold change (50 µM)
UNC119B_A6NIH7_201_NTCEHIYEFPQLSEDVIR (UniProt A6NIH7) | 0.0351 | -0.0317
USP40_Q9NVE5_798_ELADNSCLRPIDR (UniProt Q9NVE5) | 0.0166 | -0.0142
UPF1_Q92900_133_DLPIHACSYCGIHDPACVVYCNTSK (UniProt Q92900) | 0.0303 | 0.224
UBR5_O95071_51_QCVVGPNHAAFLLEDGR (UniProt O95071) | 0.022 | 0.185
UGDH_O60701_288_DVLNLVYLCEALNLPEVAR (UniProt O60701) | -0.244 | 0.119
USP15_Q9Y4E8_873_DKLDTLVDFPINDLDMSEFLINPNAGPCR (UniProt Q9Y4E8) | 0.183 | 0.0221
UMPS_P11172_304_CHEFLIFEDR (UniProt P11172) | 0.0477 | 0.0155
UPF1_Q92900_237_CFLSWLVK (UniProt Q92900) | -0.144 | -0.0648
USP34_Q70CQ2_1768_HLADCIR (UniProt Q70CQ2) | 0.151 | 0.0972
USP16_Q9Y5T5_726_HIKFPEILDLAPFCTLK (UniProt Q9Y5T5) | -0.317 | -0.472
USP19_O94966_659_LVCPVCAK (UniProt O94966) | -0.0373 | 0.0927
UHRF1BP1L_A0JNW5_398_NGWANELLHEFECNVEMLK (UniProt A0JNW5) | -0.029 | -0.102
UNK_Q9C0B0_272_CENGDACQYCHTR (UniProt Q9C0B0) | 0.124 | -0.131
USP14_P54578_257_CTESEEEEVTK (UniProt P54578) | -0.0407 | -0.184
UEVLD_Q8IX04_5_MEFDCEGLR (UniProt Q8IX04) | 0.174 | 0.163
UNC45A_Q9H3U1_34_CGDYGGALAAYTQALGLDATPQDQAVLHR (UniProt Q9H3U1) | 0.0192 | -0.224
USF1_P22415_248_ACDYIQELR (UniProt P22415) | -0.0926 | -0.184
UPF2_Q9HAU5_641_LVATLHPCMSDVAEDLCSMLR (UniProt Q9HAU5) | -0.273 | -0.159
UBR7_Q8N806_158_RPYPDPEDEIPDEMIQCVVCEDWFHGR (UniProt Q8N806) | 0.0314 | -0.0531
UIMC1_Q96RL1_661_VPSPGMEEAGCSR (UniProt Q96RL1) | -0.136 | -0.163
UQCRC1_P31930_268_HLGGIPWTYAEDAVPTLTPCR (UniProt P31930) | -0.129 | -0.087

Target | probe-labelled cysteine peptide fold change (10 µM) | probe-labelled cysteine peptide fold change (50 µM)
USP4_Q13107_624_LTLESLYQAVCDR (UniProt Q13107) | 0.0299 | 0.035
UGGT1_Q9NYU2_1475_SLPQEWLWCETWCDDASK (UniProt Q9NYU2) | 0.222 | -0.0572
UHRF1BP1_Q6BDS2_494_KPSTLLSCSR (UniProt Q6BDS2) | 0.138 | 0.0965
USP7_Q93009_334_MVSYIQCK (UniProt Q93009) | -0.0252 | -0.213
URB1_O60287_315_ELVHNFLMDLCCSLK (UniProt O60287) | -0.0229 | -0.0236
USP34_Q70CQ2_1380_CEELHLHAENLSR (UniProt Q70CQ2) | 0.0994 | -0.0197
USP19_O94966_1084_AGHFTLDQCLNLFTRPEVLAPEEAWYCPQCK (UniProt O94966) | -0.0638 | 0.151
USP7_Q93009_721_IRDLLPVMCDR (UniProt Q93009) | -0.00648 | -0.106
UNK_Q9C0B0_147_NGLHCAFAHGPHDLR (UniProt Q9C0B0) | 0.119 | 0.0621
UNK_Q9C0B0_299+308_CNDMQQSGSCPR (UniProt Q9C0B0) | 0.0296 | -0.132
UHRF1_Q96T88_316_VCACHLCGGR (UniProt Q96T88) | -0.0741 | 0.0398
UIMC1_Q96RL1_298_VILCQLEVYQK (UniProt Q96RL1) | -0.000599 | 0.0891
USP42_Q9H9J4_867_SEEPCEQPLLVHPSGDHAR (UniProt Q9H9J4) | 0.0739 | -0.132
UROS_P10746_14_EDDCGQDPYIR (UniProt P10746) | 0.0942 | -0.0191
UHRF2_Q96PU4_42_VWALFDVRPECQR (UniProt Q96PU4) | -0.00231 | 0.0277
UBR5_O95071_2546_ILGLCLLQNELCPITLNR (UniProt O95071) | -0.134 | -0.216
USP4_Q13107_7_AEGGGCR (UniProt Q13107) | 0.644 | 0.609
UHRF2_Q96PU4_297_IFLGGSEGTLNDCK (UniProt Q96PU4) | 0.0481 | 0.267
UCK2_Q9BZX2_197_PAFEEFCLPTK (UniProt Q9BZX2) | 0.0086 | 0.119
USP24_Q9UPU5_802_TFFENVNLCDHR (UniProt Q9UPU5) | -0.00633 | -0.099
